Reference: publication doi:10.1101/726521
No constants are given. Whether binding was seen depends on the method and setting. Binding can be weak; no strength is given. For part of these data: In cells and extracts the contact can be indirect.

Chains of the proteins cited; added tags and fusions are not shown. Lines headed by an entry give the natural chain unless they say otherwise; changes in a name come on top. Residues count along the entry.
MSL10_(553-734)-YN, soluble C-terminus of MSL10 (BiFC fusion) (Q9LYG9, residues 553-734): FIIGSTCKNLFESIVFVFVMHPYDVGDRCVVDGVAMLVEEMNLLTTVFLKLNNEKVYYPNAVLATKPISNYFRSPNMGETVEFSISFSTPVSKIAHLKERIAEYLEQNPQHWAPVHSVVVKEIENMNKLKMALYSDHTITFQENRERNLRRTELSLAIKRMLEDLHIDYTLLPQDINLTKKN

Key:
[1] = biological target: MSL10_(553-734), soluble C-terminus of MSL10, split-ubiquitin fusion (Arabidopsis thaliana) (UniProt Q9LYG9); experiment: two-hybrid
[2] = biological target: MSL10^S640L_(553-734), soluble C-terminus of MSL10 with the S640L lesion, split-ubiquitin fusion (Arabidopsis thaliana) (UniProt Q9LYG9); experiment: two-hybrid
[3] = biological target: MSL10_(553-734)-YN, soluble C-terminus of MSL10 (BiFC fusion) (Arabidopsis thaliana) (UniProt Q9LYG9); experiment: split reporter

MSL10_(1-460) with phospho-dead residues, split-ubiquitin fusion (from UniProt Q9LYG9) (domain or fragment)
binding [1]: binds | binding [2]: binds

MSL10 N-terminal sequence (1-460) with phospho-dead lesions (BiFC fusion) (from UniProt Q9LYG9) (domain or fragment)
binding [3]: binds
